Assay results reported in paper PMC12244087.
These are yes or no findings as the source states them, for the method shown. Binding seen in cells or lysates may run through a third protein. Some entries that bind do so weakly or less than the wild type.

Molecular target: T1, Cellular retinoic acid binding protein 2 (human (endogenous in NSCLC cells)) (UniProt P29373)
T1 sequence: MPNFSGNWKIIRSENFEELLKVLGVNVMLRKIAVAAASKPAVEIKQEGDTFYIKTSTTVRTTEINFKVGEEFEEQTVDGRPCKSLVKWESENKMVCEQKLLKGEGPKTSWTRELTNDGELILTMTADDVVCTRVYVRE
Experiment: co-IP; endogenous proteins; cells lysed in IP lysis buffer with protease inhibitors; lysate pre-washed with protein A/G beads at 4°C for 4 h; immunoprecipitation with anti-CRABP2 or anti-PLAAT4 antibodies coupled to protein A/G at 4°C overnight; Western blot; IgG as negative control

binding: binds
B1: Phospholipase A/acyltransferase 4 (protein, UniProt Q9UL19 1-164)
chain: MASPHQEPKPGDLIEIFRLGYEHWALYIGDGYVIHLAPPSEYPGAGSSSVFSVLSNSAEVKRERLEDVVGGCCYRVNNSLDHEYQPRPVEVIISSAKEMVGQKMKYSIVSRNCEHFVTQLRYGKSRCKQVEKAKVEVGVATALGILVVAGCSFAIRRYQKKATA
